Results taken from paper doi:10.1101/2023.11.13.566796.
No constants are given. Whether binding was seen depends on the method and setting. In cells and extracts the contact can be indirect. Some entries that bind do so weakly or less than the wild type. For some of these results: Tags and fused reporters may be left off the sequences shown.

Sequences of proteins named here, by UniProt entry; tags and fusion partners are left off. A change or cut given only in a name is not applied to a line headed by its entry.
UniProt P49024: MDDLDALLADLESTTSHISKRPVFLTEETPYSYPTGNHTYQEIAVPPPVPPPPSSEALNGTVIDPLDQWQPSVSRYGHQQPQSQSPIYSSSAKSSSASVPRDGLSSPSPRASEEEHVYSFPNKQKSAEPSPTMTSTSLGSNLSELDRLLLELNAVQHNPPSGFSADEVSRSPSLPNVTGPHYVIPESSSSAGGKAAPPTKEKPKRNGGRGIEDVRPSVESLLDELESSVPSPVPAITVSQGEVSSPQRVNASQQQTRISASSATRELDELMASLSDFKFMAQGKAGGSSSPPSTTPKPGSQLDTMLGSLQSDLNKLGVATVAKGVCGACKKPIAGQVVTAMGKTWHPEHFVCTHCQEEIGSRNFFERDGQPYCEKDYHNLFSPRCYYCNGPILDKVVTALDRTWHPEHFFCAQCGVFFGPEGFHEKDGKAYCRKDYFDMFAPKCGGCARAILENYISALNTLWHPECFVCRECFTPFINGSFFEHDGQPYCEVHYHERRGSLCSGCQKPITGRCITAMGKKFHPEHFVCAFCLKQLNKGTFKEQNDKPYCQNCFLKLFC
UniProt Q00944: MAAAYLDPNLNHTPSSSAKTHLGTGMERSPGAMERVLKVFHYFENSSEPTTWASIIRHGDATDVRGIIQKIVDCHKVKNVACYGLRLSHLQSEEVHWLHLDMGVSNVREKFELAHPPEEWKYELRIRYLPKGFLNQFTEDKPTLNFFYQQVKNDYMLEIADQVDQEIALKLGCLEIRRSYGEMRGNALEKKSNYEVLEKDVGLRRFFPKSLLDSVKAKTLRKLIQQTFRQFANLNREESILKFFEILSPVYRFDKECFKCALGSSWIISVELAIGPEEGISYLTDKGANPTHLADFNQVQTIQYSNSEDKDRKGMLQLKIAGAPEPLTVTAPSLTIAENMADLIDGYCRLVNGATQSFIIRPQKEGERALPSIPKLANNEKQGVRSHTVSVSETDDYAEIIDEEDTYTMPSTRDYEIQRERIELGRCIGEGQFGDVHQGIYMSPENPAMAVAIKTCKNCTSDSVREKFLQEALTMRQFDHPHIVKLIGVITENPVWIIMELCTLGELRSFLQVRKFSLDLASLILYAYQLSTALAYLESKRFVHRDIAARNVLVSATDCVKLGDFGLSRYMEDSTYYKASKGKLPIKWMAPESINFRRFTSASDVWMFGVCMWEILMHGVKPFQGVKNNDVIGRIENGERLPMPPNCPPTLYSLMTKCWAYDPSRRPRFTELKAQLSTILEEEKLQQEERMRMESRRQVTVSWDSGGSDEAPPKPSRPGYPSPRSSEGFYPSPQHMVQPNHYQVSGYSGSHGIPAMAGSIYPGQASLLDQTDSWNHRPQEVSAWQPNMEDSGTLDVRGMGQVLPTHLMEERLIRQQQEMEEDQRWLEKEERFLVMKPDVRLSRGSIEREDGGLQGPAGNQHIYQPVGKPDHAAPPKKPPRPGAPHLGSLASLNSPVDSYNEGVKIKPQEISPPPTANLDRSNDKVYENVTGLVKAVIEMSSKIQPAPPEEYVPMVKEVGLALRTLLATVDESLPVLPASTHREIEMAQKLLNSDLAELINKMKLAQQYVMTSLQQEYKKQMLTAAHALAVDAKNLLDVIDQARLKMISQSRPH

How the values were obtained:
Assay in all cases: co-IP
[1] = biological target: GFP-paxillin (UniProt P49024)
[2] = biological target: T1, GFP-BNIP-2 (human) (UniProt Q12982)
T1 sequence: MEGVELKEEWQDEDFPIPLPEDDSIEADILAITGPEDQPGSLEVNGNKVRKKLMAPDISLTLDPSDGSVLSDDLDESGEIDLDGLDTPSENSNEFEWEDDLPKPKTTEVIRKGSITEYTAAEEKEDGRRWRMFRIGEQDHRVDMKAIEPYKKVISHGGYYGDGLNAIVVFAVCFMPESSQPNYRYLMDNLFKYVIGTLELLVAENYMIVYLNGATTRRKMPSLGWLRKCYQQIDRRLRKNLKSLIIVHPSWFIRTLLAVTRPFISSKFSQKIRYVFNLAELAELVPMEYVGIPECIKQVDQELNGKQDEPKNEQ

[3] = biological target: T2, HA-tagged full-length BNIP-2 (human) (UniProt Q12982)
T2 sequence: T1 sequence

[4] = biological target: T3, GFP-BNIP-2-cBCH (human) (UniProt Q12982)
T3 sequence: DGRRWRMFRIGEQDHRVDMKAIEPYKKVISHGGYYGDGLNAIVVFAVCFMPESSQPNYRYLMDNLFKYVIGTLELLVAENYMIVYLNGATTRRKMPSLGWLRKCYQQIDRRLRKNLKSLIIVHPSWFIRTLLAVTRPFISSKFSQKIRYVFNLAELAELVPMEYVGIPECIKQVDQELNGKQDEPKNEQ

[5] = biological target: T4, GFP-BNIP-2-N terminal (human) (UniProt Q12982)
T4 sequence: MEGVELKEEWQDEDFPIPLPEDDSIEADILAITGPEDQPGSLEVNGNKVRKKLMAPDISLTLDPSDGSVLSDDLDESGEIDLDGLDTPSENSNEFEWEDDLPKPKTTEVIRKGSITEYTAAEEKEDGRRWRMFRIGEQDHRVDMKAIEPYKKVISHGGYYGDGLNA

[6] = biological target: T5, FLAG-BNIP-2 (human) (UniProt Q12982)
T5 sequence: T1 sequence

| binding [2] | binding [6] | Substance | other results |
| --- | --- | --- | --- |
|  | binds | GFP-FAK (from UniProt Q00944 1-1053) |  |
|  | binds | mApple-paxillin (from UniProt P49024 1-559) |  |

Continued, substance first:

| Substance | binding [2] | binding [6] | other results |
| --- | --- | --- | --- |
| FLAG-FAK (from UniProt Q00944 1-1053) | binds |  | binding [1]: binds; binding [3]: binds; binding [4]: binds; binding [5]: no binding |
| mApple-FAK Y397D (from UniProt Q00944 1-1053) | binds |  |  |
| mApple-FAK Y397F (from UniProt Q00944 1-1053) | binds weakly |  |  |
| mApple-FAK full-length (from UniProt Q00944 1-1053) | binds |  |  |
